Assay results taken from paper PMC6136374.
No constants are given. Whether binding was seen depends on the method and setting. For some assays here: Binding seen in cells or lysates may run through a third protein. Some entries that bind do so weakly or less than the wild type. Tags and fused reporters may be left off the sequences shown. One block for each binder: values may come before it.

Amino acid sequences for entries named in this document (tags omitted).
UniProt Q39204: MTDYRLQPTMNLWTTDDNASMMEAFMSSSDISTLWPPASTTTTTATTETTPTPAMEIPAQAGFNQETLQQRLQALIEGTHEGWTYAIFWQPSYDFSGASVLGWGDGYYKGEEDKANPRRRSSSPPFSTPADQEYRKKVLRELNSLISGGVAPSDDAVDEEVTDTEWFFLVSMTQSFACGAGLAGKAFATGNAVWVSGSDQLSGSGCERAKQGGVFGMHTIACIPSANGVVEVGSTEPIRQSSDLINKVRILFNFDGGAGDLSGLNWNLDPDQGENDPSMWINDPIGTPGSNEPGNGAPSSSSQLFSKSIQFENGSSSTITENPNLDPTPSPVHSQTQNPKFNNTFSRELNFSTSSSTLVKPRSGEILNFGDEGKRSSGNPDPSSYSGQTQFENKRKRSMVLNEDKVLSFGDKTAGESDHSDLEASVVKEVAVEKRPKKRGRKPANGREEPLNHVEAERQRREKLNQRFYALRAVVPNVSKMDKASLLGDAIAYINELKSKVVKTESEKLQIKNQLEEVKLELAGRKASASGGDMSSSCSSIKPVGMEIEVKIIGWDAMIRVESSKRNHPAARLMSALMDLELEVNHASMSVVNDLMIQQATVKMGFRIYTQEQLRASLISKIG

Legend:
[1] = target: BD-MYC2 (basic helix-loop-helix transcription factor MYC2 in pGBKT7) (Arabidopsis thaliana) (UniProt Q39204); assay: two-hybrid; AD-ABF3 (pGADT7) and BD-MYC2 (pGBKT7) co-transformed into yeast AH109; growth on SD -LEU -TRP -HIS -ADE plates with 10 mM 3-AT, 30 °C
[2] = target: MYC2-cYFP (Arabidopsis thaliana) (UniProt Q39204); assay: split reporter; BiFC with nYFP (pXY106) and cYFP (pXY104) fusions co-transformed into Nicotiana benthamiana leaf epidermal cells; confocal microscopy after 48 hours

binding [1]: binds
B1: AD-ABF3 (ABA responsive elements-binding factor ABF3 in pGADT7) (protein, UniProt Q9M7Q3 1-454)
chain: MGSRLNFKSFVDGVSEQQPTVGTSLPLTRQNSVFSLTFDEFQNSWGGGIGKDFGSMNMDELLKNIWTAEESHSMMGNNTSYTNISNGNSGNTVINGGGNNIGGLAVGVGGESGGFFTGGSLQRQGSLTLPRTISQKRVDDVWKELMKEDDIGNGVVNGGTSGIPQRQQTLGEMTLEEFLVRAGVVREEPQPVESVTNFNGGFYGFGSNGGLGTASNGFVANQPQDLSGNGVAVRQDLLTAQTQPLQMQQPQMVQQPQMVQQPQQLIQTQERPFPKQTTIAFSNTVDVVNRSQPATQCQEVKPSILGIHNHPMNNNLLQAVDFKTGVTVAAVSPGSQMSPDLTPKSALDASLSPVPYMFGRVRKTGAVLEKVIERRQKRMIKNRESAARSRARKQAYTMELEAEIAQLKELNEELQKKQVEIMEKQKNQLLEPLRQPWGMGCKRQCLRRTLTGPW

binding [2]: binds
B2: nYFP-ABF3 (protein, UniProt Q9M7Q3 1-454)
chain: B1 chain
